Assay [1] addresses T1, ITFG2 (BioPlex 2.0 bait) (human) (UniProt Q969R8).
T1 sequence: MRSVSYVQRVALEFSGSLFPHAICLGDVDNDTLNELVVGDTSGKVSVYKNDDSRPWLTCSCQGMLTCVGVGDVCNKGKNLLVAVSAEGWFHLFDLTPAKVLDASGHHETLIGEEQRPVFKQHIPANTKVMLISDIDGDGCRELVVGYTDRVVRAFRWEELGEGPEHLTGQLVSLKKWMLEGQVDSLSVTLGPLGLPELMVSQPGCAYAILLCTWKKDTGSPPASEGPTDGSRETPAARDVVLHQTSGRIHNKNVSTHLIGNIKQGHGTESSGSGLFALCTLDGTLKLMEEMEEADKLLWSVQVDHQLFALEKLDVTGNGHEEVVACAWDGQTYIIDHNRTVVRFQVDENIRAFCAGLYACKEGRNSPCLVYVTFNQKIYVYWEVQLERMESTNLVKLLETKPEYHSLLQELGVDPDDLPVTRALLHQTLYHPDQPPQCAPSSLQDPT
As to the kind of experiment: affinity purification with mass spectrometry; re-analysis of the raw MS data of BioPlex 2.0 (tagged bait refProts in HEK293T) with the OpenProt 1.6 library; 0.001% protein FDR, PepQuery validation, CompPASS and Naive Bayes classifier for high-confidence interacting proteins.

Amino acid sequences for entries named in this document (tags omitted).
UniProt O14980: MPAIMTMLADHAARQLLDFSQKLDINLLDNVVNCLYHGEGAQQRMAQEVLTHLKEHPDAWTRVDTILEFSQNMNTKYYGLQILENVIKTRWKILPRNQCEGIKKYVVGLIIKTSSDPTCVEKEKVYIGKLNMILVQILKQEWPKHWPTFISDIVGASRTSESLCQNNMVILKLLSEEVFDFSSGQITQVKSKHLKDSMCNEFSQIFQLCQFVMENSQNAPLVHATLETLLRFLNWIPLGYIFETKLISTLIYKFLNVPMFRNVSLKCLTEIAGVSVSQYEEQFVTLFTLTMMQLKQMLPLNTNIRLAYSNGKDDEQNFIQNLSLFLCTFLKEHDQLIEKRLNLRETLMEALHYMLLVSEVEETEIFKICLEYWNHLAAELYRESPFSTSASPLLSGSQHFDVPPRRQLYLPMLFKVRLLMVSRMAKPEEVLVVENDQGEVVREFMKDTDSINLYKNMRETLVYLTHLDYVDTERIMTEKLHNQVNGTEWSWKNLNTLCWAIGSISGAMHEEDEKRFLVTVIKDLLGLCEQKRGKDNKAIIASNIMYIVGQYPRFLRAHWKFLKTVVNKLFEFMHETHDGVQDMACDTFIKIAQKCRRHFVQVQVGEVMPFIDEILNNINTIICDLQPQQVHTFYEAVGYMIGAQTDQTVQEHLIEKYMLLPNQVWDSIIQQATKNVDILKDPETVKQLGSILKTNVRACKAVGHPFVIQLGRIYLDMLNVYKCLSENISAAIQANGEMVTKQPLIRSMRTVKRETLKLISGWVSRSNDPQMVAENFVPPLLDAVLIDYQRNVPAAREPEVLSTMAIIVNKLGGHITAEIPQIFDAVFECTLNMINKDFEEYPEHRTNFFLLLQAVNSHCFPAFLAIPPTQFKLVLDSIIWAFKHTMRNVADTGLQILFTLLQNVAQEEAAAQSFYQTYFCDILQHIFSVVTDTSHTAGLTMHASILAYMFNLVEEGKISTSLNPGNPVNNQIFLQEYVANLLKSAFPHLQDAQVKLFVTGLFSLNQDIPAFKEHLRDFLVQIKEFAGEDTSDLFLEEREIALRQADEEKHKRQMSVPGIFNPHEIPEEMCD

Assay [2] addresses T2, USP48 (BioPlex 2.0 bait) (human) (UniProt Q86UV5).
T2 sequence: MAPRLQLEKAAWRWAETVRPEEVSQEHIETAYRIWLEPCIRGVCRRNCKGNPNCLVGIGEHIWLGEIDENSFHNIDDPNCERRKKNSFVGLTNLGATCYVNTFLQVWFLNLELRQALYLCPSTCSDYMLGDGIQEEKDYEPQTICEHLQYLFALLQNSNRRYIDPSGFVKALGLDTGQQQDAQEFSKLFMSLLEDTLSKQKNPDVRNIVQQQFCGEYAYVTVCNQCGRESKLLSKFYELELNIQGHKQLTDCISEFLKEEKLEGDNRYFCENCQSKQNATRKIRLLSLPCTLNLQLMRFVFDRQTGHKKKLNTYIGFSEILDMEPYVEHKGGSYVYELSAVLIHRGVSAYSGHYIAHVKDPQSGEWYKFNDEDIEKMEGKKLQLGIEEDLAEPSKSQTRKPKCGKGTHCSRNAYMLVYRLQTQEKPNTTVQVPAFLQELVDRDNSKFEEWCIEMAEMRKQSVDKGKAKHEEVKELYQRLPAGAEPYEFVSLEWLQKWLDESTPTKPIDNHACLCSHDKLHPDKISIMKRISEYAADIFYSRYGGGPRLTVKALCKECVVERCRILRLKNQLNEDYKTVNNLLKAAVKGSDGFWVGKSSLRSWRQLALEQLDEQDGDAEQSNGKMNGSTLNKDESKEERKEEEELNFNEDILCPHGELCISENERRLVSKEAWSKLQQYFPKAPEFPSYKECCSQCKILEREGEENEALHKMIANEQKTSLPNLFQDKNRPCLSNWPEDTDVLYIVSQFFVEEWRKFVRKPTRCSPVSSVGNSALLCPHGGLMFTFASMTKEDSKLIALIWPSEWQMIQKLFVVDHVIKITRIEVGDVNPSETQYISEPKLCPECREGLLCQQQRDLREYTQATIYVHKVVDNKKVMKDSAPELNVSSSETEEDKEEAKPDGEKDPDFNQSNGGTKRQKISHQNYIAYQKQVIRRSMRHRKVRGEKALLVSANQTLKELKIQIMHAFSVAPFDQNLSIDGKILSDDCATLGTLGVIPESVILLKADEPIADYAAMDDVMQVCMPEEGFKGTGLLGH
Described as above.

Assay [3] has as its target T3, PHB1 (BioPlex 2.0 bait) (human) (UniProt P35232).
T3 sequence: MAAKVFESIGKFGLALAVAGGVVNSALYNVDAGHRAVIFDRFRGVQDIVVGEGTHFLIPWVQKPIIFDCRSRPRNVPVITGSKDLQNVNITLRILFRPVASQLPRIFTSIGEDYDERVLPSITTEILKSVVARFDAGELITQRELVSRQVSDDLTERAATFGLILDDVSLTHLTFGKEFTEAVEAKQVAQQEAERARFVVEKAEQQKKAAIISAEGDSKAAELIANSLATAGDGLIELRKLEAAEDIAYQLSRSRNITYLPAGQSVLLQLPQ
Described as above.

Assay [4] deals with T4, PHB1-GFP (human) (UniProt P35232).
T4 sequence: T3 sequence
Nature of the assay: affinity purification with mass spectrometry; PHB-GFP as bait on agarose ChromoTek GFP beads; HEK293 lysate (150 mM NaCl, 50 mM Tris-HCl, 1% Triton), 4 h at 4 °C; three independent AP-MS; scored with SAINT.

Results are given in words; binding and its absence hold for the method and conditions named. Binding seen in cells or lysates may run through a third protein. These calls come from enrichment with a bait or labelling near it, and not all partners need be listed. For some assays here: Where a sequence is shown, tags or fusion partners need not be part of it.

As to “IP_602155 (human (endogenous in HEK293T))”, the binding entry in assay [1] was “binds”.
“IP_710744 (human (endogenous in HEK293T))”: the binding result in assay [2] is listed as “binds”.
Take “IP_762813 (human (endogenous in HEK293T and HEK293))”: the binding result in assay [3] and in assay [4] was “binds” in each case.
Consider XPO1 (from UniProt O14980 1-1071), for which the binding result in assay [4] is “binds”.

For the origin of these results see paper PMC10787177.
